No constants are given. Whether binding was seen depends on the method and setting. In cells and extracts the contact can be indirect. Some entries that bind do so weakly or less than the wild type.
Molecular target: megalin (endogenous, mouse kidney) (mouse (endogenous in kidney)) (UniProt A2ARV4)
Test: co-IP; mouse kidney homogenate; guinea pig anti-megalin antibody and protein A/G magnetic beads, 4 °C; blots of megalin and FcRn

Sequences of proteins named here, by UniProt entry; tags and fusion partners are left off. Residues count along the entry.
UniProt A2ARV4, residues 26-4660: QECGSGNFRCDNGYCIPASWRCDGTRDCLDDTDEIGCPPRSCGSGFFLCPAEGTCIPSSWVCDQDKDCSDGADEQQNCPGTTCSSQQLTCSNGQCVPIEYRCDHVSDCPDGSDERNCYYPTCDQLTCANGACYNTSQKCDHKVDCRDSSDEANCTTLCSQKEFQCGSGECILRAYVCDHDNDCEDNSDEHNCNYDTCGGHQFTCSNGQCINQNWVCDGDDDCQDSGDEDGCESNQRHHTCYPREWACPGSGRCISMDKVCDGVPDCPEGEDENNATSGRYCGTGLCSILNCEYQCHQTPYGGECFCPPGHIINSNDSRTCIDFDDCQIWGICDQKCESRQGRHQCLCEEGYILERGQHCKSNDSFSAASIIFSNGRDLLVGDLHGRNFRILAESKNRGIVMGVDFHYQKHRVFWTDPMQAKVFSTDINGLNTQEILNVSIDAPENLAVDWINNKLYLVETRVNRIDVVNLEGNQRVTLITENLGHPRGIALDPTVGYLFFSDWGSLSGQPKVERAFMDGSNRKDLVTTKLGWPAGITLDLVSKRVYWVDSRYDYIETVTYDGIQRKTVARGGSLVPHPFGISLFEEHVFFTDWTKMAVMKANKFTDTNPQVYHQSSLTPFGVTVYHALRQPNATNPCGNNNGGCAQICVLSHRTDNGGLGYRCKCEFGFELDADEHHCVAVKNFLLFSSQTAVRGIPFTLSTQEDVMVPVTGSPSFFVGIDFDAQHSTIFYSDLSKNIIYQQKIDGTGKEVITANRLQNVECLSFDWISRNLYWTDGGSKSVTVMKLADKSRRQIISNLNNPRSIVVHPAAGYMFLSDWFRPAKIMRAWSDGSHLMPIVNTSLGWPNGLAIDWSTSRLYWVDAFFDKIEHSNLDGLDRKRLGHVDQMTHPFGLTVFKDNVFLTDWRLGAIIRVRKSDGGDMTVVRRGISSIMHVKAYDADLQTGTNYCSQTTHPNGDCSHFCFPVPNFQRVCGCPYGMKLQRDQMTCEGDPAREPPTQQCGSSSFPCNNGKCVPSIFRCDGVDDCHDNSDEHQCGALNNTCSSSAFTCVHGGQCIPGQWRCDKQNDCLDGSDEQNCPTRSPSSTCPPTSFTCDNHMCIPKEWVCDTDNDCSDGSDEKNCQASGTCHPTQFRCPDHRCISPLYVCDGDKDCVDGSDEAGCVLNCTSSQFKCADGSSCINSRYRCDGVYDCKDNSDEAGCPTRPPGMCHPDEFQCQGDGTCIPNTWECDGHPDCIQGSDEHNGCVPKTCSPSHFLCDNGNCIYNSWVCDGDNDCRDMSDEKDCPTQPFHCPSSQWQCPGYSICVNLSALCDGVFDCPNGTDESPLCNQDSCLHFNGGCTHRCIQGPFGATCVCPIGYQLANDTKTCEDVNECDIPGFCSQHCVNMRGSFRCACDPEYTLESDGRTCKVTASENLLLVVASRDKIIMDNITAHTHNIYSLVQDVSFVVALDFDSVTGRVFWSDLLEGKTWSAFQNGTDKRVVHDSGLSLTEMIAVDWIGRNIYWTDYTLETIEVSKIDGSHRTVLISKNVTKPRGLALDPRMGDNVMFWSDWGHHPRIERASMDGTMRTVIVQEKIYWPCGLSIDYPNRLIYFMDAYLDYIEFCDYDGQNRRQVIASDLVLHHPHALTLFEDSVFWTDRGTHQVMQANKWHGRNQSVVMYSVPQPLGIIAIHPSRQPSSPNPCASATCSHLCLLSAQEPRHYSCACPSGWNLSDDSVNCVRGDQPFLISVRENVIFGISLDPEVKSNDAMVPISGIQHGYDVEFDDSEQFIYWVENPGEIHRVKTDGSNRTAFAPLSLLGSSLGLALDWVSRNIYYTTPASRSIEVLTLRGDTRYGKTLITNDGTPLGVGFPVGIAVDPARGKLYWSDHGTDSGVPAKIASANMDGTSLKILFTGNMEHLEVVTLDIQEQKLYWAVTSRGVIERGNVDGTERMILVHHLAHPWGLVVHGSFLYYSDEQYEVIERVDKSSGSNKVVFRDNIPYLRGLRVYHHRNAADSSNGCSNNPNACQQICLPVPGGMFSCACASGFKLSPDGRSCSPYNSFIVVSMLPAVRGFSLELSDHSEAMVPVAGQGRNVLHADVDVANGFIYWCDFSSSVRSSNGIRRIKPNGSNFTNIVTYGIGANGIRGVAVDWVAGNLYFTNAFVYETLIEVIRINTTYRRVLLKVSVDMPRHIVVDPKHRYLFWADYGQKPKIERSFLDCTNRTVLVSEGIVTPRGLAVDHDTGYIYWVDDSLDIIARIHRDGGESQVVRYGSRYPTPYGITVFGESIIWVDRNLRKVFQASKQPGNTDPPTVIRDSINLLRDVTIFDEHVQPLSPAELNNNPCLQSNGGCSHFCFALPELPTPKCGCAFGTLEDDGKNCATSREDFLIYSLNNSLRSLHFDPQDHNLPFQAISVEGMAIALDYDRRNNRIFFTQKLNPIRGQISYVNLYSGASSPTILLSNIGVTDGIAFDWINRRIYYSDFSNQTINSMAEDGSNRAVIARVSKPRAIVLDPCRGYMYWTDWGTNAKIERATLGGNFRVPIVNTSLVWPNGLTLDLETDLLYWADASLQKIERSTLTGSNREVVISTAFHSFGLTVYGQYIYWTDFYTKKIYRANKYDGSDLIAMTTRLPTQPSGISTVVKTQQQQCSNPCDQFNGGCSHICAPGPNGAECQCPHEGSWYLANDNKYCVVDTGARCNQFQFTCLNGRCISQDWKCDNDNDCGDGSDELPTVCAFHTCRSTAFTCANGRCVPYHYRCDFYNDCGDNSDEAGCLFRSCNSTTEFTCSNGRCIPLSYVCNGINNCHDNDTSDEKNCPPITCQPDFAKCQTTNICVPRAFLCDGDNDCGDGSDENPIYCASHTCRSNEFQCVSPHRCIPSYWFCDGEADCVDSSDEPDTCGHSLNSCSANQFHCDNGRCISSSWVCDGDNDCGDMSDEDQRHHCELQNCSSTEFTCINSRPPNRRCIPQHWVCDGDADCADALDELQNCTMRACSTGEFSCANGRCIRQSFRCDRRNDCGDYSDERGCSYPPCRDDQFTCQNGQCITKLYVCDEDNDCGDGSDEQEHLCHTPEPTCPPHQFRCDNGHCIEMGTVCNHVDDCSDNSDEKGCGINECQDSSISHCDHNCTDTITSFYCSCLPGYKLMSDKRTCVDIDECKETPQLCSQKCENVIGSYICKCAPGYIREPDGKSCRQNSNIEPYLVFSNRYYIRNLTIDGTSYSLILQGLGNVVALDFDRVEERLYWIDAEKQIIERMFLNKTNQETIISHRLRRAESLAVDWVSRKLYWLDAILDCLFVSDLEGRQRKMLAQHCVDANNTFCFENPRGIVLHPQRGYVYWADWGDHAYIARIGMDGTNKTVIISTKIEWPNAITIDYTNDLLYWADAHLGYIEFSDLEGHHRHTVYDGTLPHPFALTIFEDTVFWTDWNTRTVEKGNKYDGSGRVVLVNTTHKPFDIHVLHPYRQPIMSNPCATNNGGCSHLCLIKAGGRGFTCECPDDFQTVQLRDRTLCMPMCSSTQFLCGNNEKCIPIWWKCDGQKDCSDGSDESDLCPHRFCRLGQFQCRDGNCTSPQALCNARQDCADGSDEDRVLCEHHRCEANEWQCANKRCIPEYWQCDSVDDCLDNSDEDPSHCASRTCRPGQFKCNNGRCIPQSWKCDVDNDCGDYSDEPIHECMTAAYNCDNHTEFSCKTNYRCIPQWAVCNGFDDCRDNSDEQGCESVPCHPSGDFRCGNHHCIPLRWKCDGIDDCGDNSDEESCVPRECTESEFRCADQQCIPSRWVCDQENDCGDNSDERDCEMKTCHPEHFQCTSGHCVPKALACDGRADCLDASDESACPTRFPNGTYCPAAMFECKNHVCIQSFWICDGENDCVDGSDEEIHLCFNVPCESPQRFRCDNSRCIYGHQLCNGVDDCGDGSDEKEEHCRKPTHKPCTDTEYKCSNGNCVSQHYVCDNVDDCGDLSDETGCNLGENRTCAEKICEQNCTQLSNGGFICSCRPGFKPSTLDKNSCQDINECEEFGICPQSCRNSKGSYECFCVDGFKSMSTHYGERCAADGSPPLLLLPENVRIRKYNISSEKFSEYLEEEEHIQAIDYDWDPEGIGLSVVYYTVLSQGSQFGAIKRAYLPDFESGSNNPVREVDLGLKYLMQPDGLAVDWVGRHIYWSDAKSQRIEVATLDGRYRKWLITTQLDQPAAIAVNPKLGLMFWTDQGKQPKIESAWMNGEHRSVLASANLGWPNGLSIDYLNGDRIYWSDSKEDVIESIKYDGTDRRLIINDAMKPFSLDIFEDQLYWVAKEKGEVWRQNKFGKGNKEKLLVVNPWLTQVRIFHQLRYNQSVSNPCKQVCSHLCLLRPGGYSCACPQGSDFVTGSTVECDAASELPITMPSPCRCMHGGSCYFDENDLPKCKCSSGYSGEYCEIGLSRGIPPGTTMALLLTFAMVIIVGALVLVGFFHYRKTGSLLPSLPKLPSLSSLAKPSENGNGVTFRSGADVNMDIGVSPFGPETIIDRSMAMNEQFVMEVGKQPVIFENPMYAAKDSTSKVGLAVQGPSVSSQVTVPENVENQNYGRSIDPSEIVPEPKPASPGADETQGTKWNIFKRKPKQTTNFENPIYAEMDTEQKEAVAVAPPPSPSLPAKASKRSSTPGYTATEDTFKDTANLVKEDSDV

binding: binds
B1: FcRn (endogenous, mouse kidney) (receptor, UniProt Q61559 22-365)
chain: SETRPPLMYHLTAVSNPSTGLPSFWATGWLGPQQYLTYNSLRQEADPCGAWMWENQVSWYWEKETTDLKSKEQLFLEALKTLEKILNGTYTLQGLLGCELASDNSSVPTAVFALNGEEFMKFNPRIGNWTGEWPETEIVANLWMKQPDAARKESEFLLNSCPERLLGHLERGRRNLEWKEPPSMRLKARPGNSGSSVLTCAAFSFYPPELKFRFLRNGLASGSGNCSTGPNGDGSFHAWSLLEVKRGDEHHYQCQVEHEGLAQPLTVDLDSSARSSVPVVGIVLGLLLVVVAIAGGVLLWGRMRSGLPAPWLSLSGDDSGDLLPGGNLPPEAEPQGANAFPATS
